The results in this text go back to PMC5665977.

These are yes or no findings as the source states them, for the method shown. Binding seen in cells or lysates may run through a third protein. These calls come from enrichment with a bait or labelling near it, and not all partners need be listed.

In this assay the target is T1, Atp10^ProtA (S. cerevisiae) (UniProt P18496).
T1 sequence: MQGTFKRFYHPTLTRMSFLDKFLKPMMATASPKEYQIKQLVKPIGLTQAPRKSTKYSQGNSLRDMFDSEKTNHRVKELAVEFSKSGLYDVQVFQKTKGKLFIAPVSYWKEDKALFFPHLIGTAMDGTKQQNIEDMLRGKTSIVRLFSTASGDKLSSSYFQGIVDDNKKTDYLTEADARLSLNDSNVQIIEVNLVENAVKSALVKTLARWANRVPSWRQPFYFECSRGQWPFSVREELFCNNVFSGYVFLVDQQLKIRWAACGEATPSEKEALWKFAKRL
The assay can be described thus: affinity purification with mass spectrometry; Atp10^ProtA complexes purified by IgG-affinity chromatography from Atp10^ProtA and Atp10^ProtA ina22Δ mitochondria, BN-PAGE, LC-MS, label-free quantification.

B1: Atp16 (protein, UniProt Q12165 23-160)
chain: AEAAAASSGLKLQFALPHETLYSGSEVTQVNLPAKSGRIGVLANHVPTVEQLLPGVVEVMEGSNSKKFFISGGFATVQPDSQLCVTAIEAFPLESFSQENIKNLLAEAKKNVSSSDAREAAEAAIQVEVLENLQSVLK
Turning to B1, the binding entry is given as “binds”.
